Test results: article doi:10.1101/2020.09.17.302448
Results are given in words; binding and its absence hold for the method and conditions named. Binding seen in cells or lysates may run through a third protein. Some binding calls cover weakened binding; strength is not graded here.

Chains of the proteins cited; added tags and fusions are not shown.
UniProt P35568: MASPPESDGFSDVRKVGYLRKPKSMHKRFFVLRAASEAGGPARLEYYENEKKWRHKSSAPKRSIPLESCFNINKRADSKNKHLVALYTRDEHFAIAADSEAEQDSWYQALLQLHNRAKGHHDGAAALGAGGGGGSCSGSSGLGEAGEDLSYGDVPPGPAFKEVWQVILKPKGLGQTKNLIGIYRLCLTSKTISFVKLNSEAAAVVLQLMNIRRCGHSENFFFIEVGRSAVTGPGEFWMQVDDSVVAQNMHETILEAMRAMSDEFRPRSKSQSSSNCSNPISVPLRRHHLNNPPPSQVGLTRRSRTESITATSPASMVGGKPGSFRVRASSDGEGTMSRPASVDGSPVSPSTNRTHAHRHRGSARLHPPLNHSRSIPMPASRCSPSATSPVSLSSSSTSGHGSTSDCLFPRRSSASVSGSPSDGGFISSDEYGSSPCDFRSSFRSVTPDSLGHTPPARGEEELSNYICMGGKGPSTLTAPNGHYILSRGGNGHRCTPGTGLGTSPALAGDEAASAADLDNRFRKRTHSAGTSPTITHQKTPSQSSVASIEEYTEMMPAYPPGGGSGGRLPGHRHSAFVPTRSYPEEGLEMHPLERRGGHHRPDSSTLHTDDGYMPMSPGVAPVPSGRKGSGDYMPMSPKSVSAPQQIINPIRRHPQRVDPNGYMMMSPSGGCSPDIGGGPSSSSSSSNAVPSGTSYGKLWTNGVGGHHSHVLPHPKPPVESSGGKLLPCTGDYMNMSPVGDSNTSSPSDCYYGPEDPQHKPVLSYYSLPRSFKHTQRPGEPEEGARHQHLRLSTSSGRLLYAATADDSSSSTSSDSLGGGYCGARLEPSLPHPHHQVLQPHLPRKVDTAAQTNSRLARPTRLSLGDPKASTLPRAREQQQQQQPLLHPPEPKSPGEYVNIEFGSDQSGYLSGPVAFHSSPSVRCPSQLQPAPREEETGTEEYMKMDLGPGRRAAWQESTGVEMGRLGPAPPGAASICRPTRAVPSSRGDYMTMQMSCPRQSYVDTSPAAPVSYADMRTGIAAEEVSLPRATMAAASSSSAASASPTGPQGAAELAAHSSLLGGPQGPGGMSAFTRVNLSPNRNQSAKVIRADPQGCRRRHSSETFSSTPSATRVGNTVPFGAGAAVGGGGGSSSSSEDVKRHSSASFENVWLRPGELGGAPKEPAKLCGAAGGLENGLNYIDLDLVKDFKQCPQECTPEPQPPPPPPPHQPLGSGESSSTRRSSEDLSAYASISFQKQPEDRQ
UniProt P25098: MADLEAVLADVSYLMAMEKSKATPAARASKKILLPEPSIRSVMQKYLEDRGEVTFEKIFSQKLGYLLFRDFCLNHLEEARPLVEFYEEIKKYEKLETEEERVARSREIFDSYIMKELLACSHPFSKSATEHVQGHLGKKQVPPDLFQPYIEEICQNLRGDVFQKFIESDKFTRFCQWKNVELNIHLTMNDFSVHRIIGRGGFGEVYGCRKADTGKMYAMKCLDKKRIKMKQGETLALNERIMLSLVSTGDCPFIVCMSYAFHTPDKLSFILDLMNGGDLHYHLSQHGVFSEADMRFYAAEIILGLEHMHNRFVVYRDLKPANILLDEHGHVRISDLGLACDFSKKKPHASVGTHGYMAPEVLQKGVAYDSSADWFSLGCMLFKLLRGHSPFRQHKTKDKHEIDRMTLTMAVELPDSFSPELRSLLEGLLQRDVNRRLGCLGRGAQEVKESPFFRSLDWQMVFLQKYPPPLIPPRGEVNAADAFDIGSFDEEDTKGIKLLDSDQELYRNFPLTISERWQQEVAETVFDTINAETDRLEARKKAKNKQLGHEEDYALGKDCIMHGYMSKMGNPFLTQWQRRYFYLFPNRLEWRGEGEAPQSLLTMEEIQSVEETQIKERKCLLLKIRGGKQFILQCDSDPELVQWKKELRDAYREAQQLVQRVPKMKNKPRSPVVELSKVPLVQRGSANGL
UniProt P48736: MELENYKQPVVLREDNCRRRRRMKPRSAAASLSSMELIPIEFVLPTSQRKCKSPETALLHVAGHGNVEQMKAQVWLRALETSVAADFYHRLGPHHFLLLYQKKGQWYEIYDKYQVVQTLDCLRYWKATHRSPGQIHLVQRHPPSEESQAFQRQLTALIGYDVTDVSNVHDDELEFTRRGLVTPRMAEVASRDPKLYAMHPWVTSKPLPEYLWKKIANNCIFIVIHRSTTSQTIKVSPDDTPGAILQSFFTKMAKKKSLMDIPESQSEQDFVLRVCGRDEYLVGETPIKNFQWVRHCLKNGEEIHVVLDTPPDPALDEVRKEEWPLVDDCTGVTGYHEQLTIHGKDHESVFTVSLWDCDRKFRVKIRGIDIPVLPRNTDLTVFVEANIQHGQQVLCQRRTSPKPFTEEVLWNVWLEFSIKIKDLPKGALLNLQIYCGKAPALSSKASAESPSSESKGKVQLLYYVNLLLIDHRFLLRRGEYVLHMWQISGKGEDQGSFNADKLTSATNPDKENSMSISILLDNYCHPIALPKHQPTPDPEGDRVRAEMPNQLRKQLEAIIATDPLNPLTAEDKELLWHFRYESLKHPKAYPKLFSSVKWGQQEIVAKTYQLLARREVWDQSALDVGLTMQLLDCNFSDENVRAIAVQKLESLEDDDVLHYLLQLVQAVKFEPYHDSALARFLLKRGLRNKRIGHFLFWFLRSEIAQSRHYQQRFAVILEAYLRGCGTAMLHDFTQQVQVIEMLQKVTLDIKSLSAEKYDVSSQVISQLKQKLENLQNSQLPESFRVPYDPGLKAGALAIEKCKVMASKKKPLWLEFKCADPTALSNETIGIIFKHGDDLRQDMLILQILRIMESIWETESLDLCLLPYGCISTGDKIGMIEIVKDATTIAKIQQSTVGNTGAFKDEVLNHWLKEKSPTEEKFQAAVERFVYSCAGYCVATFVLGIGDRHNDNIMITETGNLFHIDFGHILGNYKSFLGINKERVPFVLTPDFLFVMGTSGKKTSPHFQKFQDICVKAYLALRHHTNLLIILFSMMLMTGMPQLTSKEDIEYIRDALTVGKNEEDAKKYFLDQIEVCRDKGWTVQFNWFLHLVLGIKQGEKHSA

Columns and labels:
[1] = biological target: insulin receptor substrate 1 (IRS1), endogenous (human (endogenous in HEK 293)) (UniProt P35568); assay: co-IP
[2] = biological target: T1, insulin receptor substrate 2 (IRS2), endogenous (human (endogenous in HEK 293)) (UniProt Q9Y4H2); assay: co-IP
T1 sequence: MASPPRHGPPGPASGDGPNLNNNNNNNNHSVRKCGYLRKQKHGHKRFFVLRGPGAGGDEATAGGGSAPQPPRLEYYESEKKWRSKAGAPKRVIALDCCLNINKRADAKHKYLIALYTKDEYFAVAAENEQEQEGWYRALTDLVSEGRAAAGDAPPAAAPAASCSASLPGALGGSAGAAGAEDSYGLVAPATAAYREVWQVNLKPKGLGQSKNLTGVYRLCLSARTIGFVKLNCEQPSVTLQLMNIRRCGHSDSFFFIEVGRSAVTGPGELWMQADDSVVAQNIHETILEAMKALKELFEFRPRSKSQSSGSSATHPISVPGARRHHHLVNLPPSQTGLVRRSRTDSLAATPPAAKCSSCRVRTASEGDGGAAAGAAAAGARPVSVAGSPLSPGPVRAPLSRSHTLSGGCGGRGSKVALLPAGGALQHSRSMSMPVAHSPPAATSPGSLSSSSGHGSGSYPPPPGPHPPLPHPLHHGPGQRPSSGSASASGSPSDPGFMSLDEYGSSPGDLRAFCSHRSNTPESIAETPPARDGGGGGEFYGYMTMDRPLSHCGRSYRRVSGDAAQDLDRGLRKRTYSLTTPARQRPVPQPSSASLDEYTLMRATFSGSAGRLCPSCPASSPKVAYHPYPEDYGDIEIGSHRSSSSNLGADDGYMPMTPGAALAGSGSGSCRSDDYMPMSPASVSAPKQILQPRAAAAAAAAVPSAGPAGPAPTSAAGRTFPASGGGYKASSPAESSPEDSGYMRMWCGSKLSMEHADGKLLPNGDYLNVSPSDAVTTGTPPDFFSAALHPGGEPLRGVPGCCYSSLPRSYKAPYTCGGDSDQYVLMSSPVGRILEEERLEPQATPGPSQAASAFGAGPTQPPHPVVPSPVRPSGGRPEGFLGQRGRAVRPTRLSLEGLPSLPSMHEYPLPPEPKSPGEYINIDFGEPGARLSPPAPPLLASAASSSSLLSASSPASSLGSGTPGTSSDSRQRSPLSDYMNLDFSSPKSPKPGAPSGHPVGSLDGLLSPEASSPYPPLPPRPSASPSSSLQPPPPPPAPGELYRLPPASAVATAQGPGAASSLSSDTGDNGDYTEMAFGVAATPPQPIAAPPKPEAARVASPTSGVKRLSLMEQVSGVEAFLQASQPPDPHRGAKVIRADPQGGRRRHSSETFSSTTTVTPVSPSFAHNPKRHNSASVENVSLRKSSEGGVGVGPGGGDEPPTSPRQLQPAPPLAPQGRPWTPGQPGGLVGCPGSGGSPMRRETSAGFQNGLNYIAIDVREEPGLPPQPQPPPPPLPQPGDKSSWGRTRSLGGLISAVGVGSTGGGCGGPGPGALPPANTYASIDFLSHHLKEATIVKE

binding [1]	binding [2]	Substance
binds	binds	G protein-coupled receptor kinase 2 (GRK2), endogenous in FLAG-β2AR HEK 293 cells (from UniProt P25098 1-689) (enzyme)
	binds weakly	phosphoinositide 3-kinase γ (PI3Kγ), endogenous in FLAG-β2AR HEK 293 cells (from UniProt P48736 1-1102) (enzyme)
